Results deposited as PubChem BioAssay AID743454 (Peter MacCallum Cancer Centre, 2014)
Screen: 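Knock-downs lowering viability or raising caspase 3/7 activity in vorinostat-treated resistant cells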 (primary screen). System: human HCT116-VR colon cancer cells, selected for vorinostat resistance. Reagent: siRNA pool against human genes, 40 nM siRNA pool. Duration: vorinostat for 24 h, read-out about 72 h after transfection. Treatment: vorinostat at 2.5 µM final. Detection: 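Two measures, CellTiter-Fluor viability and luminescent caspase 3/7 activity, each as fold change against same-plate mock wells, mean of duplicates, then screen-wide robust z-score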. Scale: viability robust z-score: higher = more viable cells than screen typical; caspase robust z-score: higher = more caspase 3/7 activity than screen typical. Active means: 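Hits are knock-downs in viability class RV1/RV2 or caspase class CA1/CA2, excluding ones that killed cells in the no-drug cell-count arm; hits then retested with single siRNAs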.
Shown is a random part of about 18,000 deposited reagents. Over the whole deposit, 450 (2.5%) got an active call. 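Single biological run; no consistent viability z cut-off exists, so the class columns, not z-scores, define the calls.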

The first 2 records as a preview:
| Target gene | viability hit class | caspase hit class | viability robust z-score | caspase robust z-score | Outcome |
| --- | --- | --- | --- | --- | --- |
| SHROOM1 (shroom family member 1) | no change | no change | -0.12 | -0.06 | inactive |
| GSTO2 (glutathione S-transferase omega 2) | no change | no change | 0.98 | -0.06 | inactive |

The listing, from the first entry:
| Target gene | viability hit class | caspase hit class | viability robust z-score | caspase robust z-score | Outcome |
| --- | --- | --- | --- | --- | --- |
| SHROOM1 (shroom family member 1) | no change | no change | -0.12 | -0.06 | inactive |
| GSTO2 (glutathione S-transferase omega 2) | no change | no change | 0.98 | -0.06 | inactive |
| H3-3B (H3.3 histone B) | no change | no change | 0.02 | -0.92 | inactive |
| FGFR3 (fibroblast growth factor receptor 3) | no change | no change | -0.79 | 2.79 | inactive |
| ST8SIA5 (ST8 alpha-N-acetyl-neuraminide alpha-2,8-sialyltransferase 5) | no change | no change | 0.2 | -0.3 | inactive |
| IKZF2 (IKAROS family zinc finger 2) | no change | no change | -0.33 | -1.32 | inactive |
| ADSS1 (adenylosuccinate synthase 1) | no change | no change | 0.1 | -0.82 | inactive |
| OR2AG2 (olfactory receptor family 2 subfamily AG member 2) | no change | no change | -0.54 | 0.2 | inactive |
| MYO1E (myosin IE) | no change | no change | -2.09 | 1.65 | inactive |
| CYP2J2 (cytochrome P450 family 2 subfamily J member 2) | no change | no change | 0.45 | 0.18 | inactive |
| SYCN (syncollin) | no change | no change | -0.14 | -0.32 | inactive |
| CDH12 (cadherin 12) | no change | no change | 0.96 | 0.16 | inactive |
| GNL2 (G protein nucleolar 2) | no change | no change | -2.59 | 2.1 | inactive |
| HDAC8 (histone deacetylase 8) | no change | no change | 0.94 | -0.49 | inactive |
| UNC13A (unc-13 homolog A) | no change | no change | -0.51 | 0.64 | inactive |
| BTN2A1 (butyrophilin subfamily 2 member A1) | no change | no change | -0.79 | 0.3 | inactive |
| RASSF7 (Ras association domain family member 7) | no change | no change | 0.16 | 1.69 | inactive |
| CRNKL1 (crooked neck pre-mRNA splicing factor 1) | no change | no change | -3.59 | 0.53 | inactive |
| TSPYL2 (TSPY like 2) | no change | no change | 0.16 | -0.4 | inactive |
| LDHD (lactate dehydrogenase D) | no change | no change | -0.26 | 0.36 | inactive |
| RASAL3 (RAS protein activator like 3) | no change | no change | 1.01 | -1.09 | inactive |
| PRAMEF16 (retired record) | no change | no change | -1.3 | 2.02 | inactive |
| METTL23 (methyltransferase 23, arginine) | no change | no change | -0.4 | -0.63 | inactive |
| COA8 (cytochrome c oxidase assembly factor 8) | no change | no change | -0.48 | 0.31 | inactive |
| PALS1 (protein associated with LIN7 1, MAGUK p55 family member) | no change | no change | 1.67 | -0.74 | inactive |
| DSCR10 (Down syndrome critical region 10) | no change | no change | -0.02 | -0.64 | inactive |
| NPFFR1 (neuropeptide FF receptor 1) | no change | no change | 0.61 | 1.14 | inactive |
| CR2 (complement C3d receptor 2) | no change | no change | 2.21 | -0.3 | inactive |
| TFAP2D (transcription factor AP-2 delta) | no change | CA1 (caspase activation) | 1.18 | 5.37 | active |
| SYNPO (synaptopodin) | no change | no change | -1.25 | 1.25 | inactive |
| TOP3A (DNA topoisomerase III alpha) | no change | no change | -0.36 | 1.36 | inactive |
| PDCD1 (programmed cell death 1) | no change | no change | -0.74 | 3.71 | inactive |
| TRAPPC8 (trafficking protein particle complex subunit 8) | no change | no change | 0.22 | -0.6 | inactive |
| CRB2 (crumbs cell polarity complex component 2) | no change | no change | 1.05 | -0.28 | inactive |
| ACER1 (alkaline ceramidase 1) | no change | no change | -1.32 | 1.74 | inactive |
| IL12A (interleukin 12A) | no change | no change | 0.78 | 2.5 | inactive |
| MRGPRX2 (MAS related GPR family member X2) | no change | no change | 0 | -0.48 | inactive |
| AGAP1 (ArfGAP with GTPase domain, ankyrin repeat and PH domain 1) | no change | no change | 0.6 | -0.44 | inactive |
| TXN (thioredoxin) | no change | no change | -0.44 | 0.42 | inactive |
